According to patent US20210169883A1, “METHOD OF TREATING AGGRESSION WITH OREXIN RECEPTOR ANTAGONISTS” (Icahn School of Medicine at Mount Sinai, priority 2018, published 2021):
Some entries share one result that the patent states for a list of compounds.

Tested on: aggressive (AGG) male CD-1 mice
Format: in vivo, mouse
Experimental: Aggression screening was performed as previously described by utilizing the resident intruder (RI) test (Golden et al., 2016b). After a minimum of one week of habituation to home cages, experimental mice were exposed to a novel C57BL/6J intruder for 3 min daily over 3 consecutive days. Each intruder presentation was performed in the home cage of the experimental mouse between 12-3 PM daily under white light conditions. During RI sessions the cage top was removed to allow for unobstructed viewing and video recording of sessions. The duration and number of screening sessions were selected to prevent induction of stress- and anxiety-related behaviors in experimental mice (Golden et al., 2016b). All RI sessions were video recorded with a digital color video camera. Two blind observers recorded (1) the latency to initial aggression and (2) the total duration of aggression. The initiation of aggression was defined by the first clear physical antagonistic interaction initiated by the resident mouse (usually a bite), not including grooming or pursuit behavior. […]
First, mice were screened for three consecutive days in the RI test. […] 24 hours following the last RI test, mice were treated again with either drug or vehicle and anxiety and locomotion were assessed using the open field test.

SMILES: CCN(Cc1cccnc1)C(=O)CN(c1ccc(OC)nc1)S(=O)(=O)c1ccccc1C [EMPA, N-ethyl-2-[(6-methoxy-pyridin-3-yl)-(toluene-2-sulphonyl)-amino]-N-pyridin-3-ylmethyl-acetamide]
- Average attack duration for three days of RI, p value vs vehicle (Dunnett's multiple comparison test, FIG. 15C): < 0.05
